Measurements: patent US20250276100A1, “DEVELOPMENT OF NTSR TARGETED AGENTS FOR IMAGING AND THERAPY APPLICATIONS” (THE UNIVERSITY OF NORTH CAROLINA AT CHAPEL HILL, priority 2022, published 2025)
Some of these results come from one statement about several compounds together. Where a SMILES comes first, the peptide text is derived from it. [ ]: non-standard residue; d: D form. Gly(1-amidinopiperidin-4-yl) = N=C(N)N1CCC([C@H](N)C(=O)O)CC1; Gly(piperidin-4-yl) = N[C@H](C(=O)O)C1CCNCC1; NMeR = CN[C@@H](CCCNC(=N)N)C(=O)O; Tle = CC(C)(C)[C@H](N)C(=O)O

Chains of the proteins cited; added tags and fusions are not shown.
UniProt P30989, whole entry: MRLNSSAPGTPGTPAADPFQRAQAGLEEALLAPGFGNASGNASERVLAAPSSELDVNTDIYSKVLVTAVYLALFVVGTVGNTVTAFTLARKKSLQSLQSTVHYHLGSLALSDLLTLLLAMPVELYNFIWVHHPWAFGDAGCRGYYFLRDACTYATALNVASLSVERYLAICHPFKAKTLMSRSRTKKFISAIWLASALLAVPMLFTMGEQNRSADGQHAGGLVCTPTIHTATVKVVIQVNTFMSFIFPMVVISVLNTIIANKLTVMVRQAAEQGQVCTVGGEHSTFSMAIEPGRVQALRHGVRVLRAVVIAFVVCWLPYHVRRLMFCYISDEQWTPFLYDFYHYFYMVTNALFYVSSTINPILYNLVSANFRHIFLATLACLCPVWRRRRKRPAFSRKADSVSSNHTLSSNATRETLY

Biological target: T1, NTSR1 (Homo sapiens, UniProt P30989)
T1 construct: from tissue; host or cells: NTSR1-positive tumour in vivo
Experiment: side by side comparison of 64Cu labeled SR-CP-05 with NT peptide analogs and 3BP-227 (FIG. 8), tumor uptake and contrast
Format: in vivo
Details: post injection
Excerpt: The NTSR1 targeted imaging agent was constructed based on NTS peptide derivatives. Although high tumor-to-background contrast could be obtained, the absolute tumor uptake was moderate with fast clearance from the subject. Moreover, these NTSR1 binding peptides are generally agonists of NTSR1, which may promote tumor progress at high concentration. This may not be a concern for PET imaging due to the limited amount, but it could be a potential risk in treatment. Antagonistic SR142948A based agents were developed, the lead agent being 3BP-227. Side by side comparisons between the lead agent SR-CP-05 and previously reported agents were performed. […] Importantly, SR-CP-05 maintained >15% ID/g tumor uptake at 48 hr post injection. In contrast, the tumor uptake of 3BP-227 decreased to 2.3% ID/g at 24 hr post injection. The unique distribution profile of SR-CP-05 can provide an imaging and radionuclide-based therapy agent targeting NTSR1.
SR-CP-05 was discovered to be well suited for therapy applications. […] Clearly, the fast clearance may be acceptable from an imaging point of view, but these ligands are not suited for therapeutic applications. […] Importantly, high contrast (tumor/background >20) was obtained at 1 hr post injection and the washout was minimal even after 48 hr post injection. […] Clearly, SR-CP-05 represents a highly promising ligand for both imaging and therapy applications. […]

CC(=O)N[C@@H](CCCCN)C(=O)N1CCC[C@H]1C(=O)N(C)[C@@H](CCCNC(=N)N)C(=O)N[C@@H](CCCNC(=N)N)C(=O)N1CCC[C@H]1C(=O)N[C@@H](Cc1ccc(O)cc1)C(=O)N[C@H](C(=O)N[C@@H](CC(C)C)C(=O)O)C(C)(C)C [NTS20.3] (Ac-KP[NMeR]RPY[Tle]L-OH; N-terminus and C-terminus assumed)
time at which quickly cleared out: 3 to 4 h

CC(C)C[C@H](NC(=O)[C@@H](NC(=O)[C@H](Cc1ccc(O)cc1)NC(=O)[C@@H]1CCCN1C(=O)[C@H](CCCNC(=N)N)NC(=O)[C@@H](NC(=O)[C@@H]1CCCN1C(=O)[C@@H](N)C1CCNCC1)C1CCN(C(=N)N)CC1)C(C)(C)C)C(=O)O [NTSmut] (H-[Gly(piperidin-4-yl)]P[Gly(1-amidinopiperidin-4-yl)]RPY[Tle]L-OH; N-terminus and C-terminus assumed)
time at which quickly cleared out: 3 to 4 h
